The list shows a part of the results.
B1: il10ra_site1_normal_mot_HHH_b2_06255_000000043_0001_1_20_H_._HHH_b2_06965_0001_0000500054_0000001_0 (protein)
chain: SSSSSDELFEEVREAIERANELFKKDDEEARELLEEALEKVEEAGNLLLLFSLRHAIRANSSSSS
B2: il10ra_site1_normal_mot_HHH_b2_03220_af2_000000223_0001_23_40_H_._HHH_b1_06765_0001_0000300020_0000001_0 (protein)
chain: SSSSSLEEVWELIREALEALANGDPERAEELLEEARRLAEENNSPLFEFAVRHLLKDVEESSSSS
B3: il10ra_site1_normal_mot_HHH_b2_02537_000000065_0001_1_20_H_._HHH_b2_02684_0001_0000200023_0000004_0 (protein)
chain: SSSSTDEEFRETREVIERASELFLNGNPEEAEELLEELLKKLEEEGNEALFFAAEHLLRLLSSSS
B4: il10ra_site1_normal_mot_HHH_b1_04704_af2_000000076_0001_43_57_H_._HHH_b2_04324_0001_0000100005_0000001_0_af2pred_0001 (protein)
chain: SSSSDEEVKRVKELLEKALKLARRGNPEEAERLLEEAREIAEEAGNLQLRLQVEFVARLLSSSSS
B5: il10ra_site1_sap_19_mot_a2bf7c1b5df5f4a6a28f683756f784c8_0001_1_000000075_0001_17_32_H_._HEEHE_1797_0001_0000700006_0000001_0_0001 (protein)
chain: SSSSSEEDERILELSKEAFRLLLRGNPEEAQKVLEEALRLAEEAGDERALKMLEDLLKIARSSSS
B6: il10ra_site1_sap_10_mot_HHH_b2_01447_af2_000000258_0001_1_20_H_._HHH_b2_06336_0001_0000200027_0000002_0_0001 (protein)
chain: SSSDSDEVYKLIKEAMELLREGDPEEVEELLERIRELIEKAGNFVLRYNLEILERLLEELRSSSS
B7: il10ra_site1_sap_27_mot_HHH_b1_01513_af2_000000021_0001_1_16_H_._HHH_b2_07447_af2_0001_0000200004_0000001_0_0001_af2pred_0001 (protein)
chain: SSSSSSAEEVFEQVARLLEEALRISDEEEVEELLKEAKEIAEEGNNELLKVQIRFAKERHSSSSS
B8: il10ra_site1_normal_mot_HHH_b1_03260_000000175_0001_42_57_H_._HHH_b2_04884_0001_0000400027_0000001_1 (protein)
chain: SSSSSEIEEYVRLALRFAEQLQETGDEEAVKSYLRAAEEIAKQNNDEEAEELVEEVKEKLSSSSS
B9: il10ra_site1_normal_mot_HHH_b2_02354_af2_000000157_0001_40_56_H_._HHH_b1_03438_0001_0000500041_0000001_0_af2pred_0001 (protein)
chain: SSSSSRKELLRKEFELILRLLKELNDEEAVRRVEELLEQAEEEGDPRYLKEALELAREAGSSSSS
B10: il10ra_site1_normal_mot_HHH_b2_04001_000000102_0001_19_36_H_._HHH_b2_05818_af2_0001_0000400011_0000001_0 (protein)
chain: SSSSDEEEVKERVEELLEEAEKIEDRQEVARLFIEALELAFRARDDELLREIWKVFKELTSSSSS
B11: il10ra_site1_normal_mot_HHH_b1_01886_000000262_0001_1_18_H_._HHH_b1_06187_0001_0000300020_0000002_0 (protein)
chain: SSSSTLEWSVRFALRAARLLRERGNPEQAEELLEKLLELLEETGDEELFEEVERLLEELRKSSSS
B12: il10ra_site1_normal_mot_HHH_b1_05357_000000034_0001_23_39_H_._HHH_b1_04597_0001_0000400041_0000001_0_af2pred_0001 (protein)
chain: SSSSSDEEEVERLLREAQEALENGNPHEASYLLIRAFAIAVRNRNPELRRLVEEAAKRLHSSSSS
B13: il10ra_site1_normal_mot_HHH_b1_00992_000000182_0001_23_40_H_._HHH_b1_05623_0001_0000100002_0000001_0_af2pred_0001 (protein)
chain: SSSSDEEERRLRLILELAELLIEQGDEEAARRLLEAAAELAERNNDEEILEEVERLLKELSSSSS
B14: il10ra_site1_sap_23_mot_HHH_b1_06816_000000239_0001_1_19_H_._HHH_b2_02057_af2_0001_0000500016_0000001_0_0001 (protein)
chain: SSSSSDEFNELILKIEELLYNGNPEEARELVEEMEELVKELGDPELEEYLKILKHFVEAQSSSSS
B15: il10ra_site1_normal_mot_HHH_b2_05323_000000159_0001_1_18_H_._HHH_b2_02074_af2_0001_0000500025_0000001_0 (protein)
chain: SSSSSSSEALEISREAFRAALRGDEEKARELLEEAEELAQEEGDERIERAVEDLLKALGSSSSSS
B16: il10ra_site1_normal_mot_HHH_b1_02708_af2_000000019_0001_23_39_H_._HHH_b2_02879_af2_0001_0000300013_0000001_0_af2pred_0001 (protein)
chain: SSSSNEEQRVSELLFRVVKLYADGNPEEAEKVLEEAKRLAEELGDEELERAVEIARRFVESSSSS
B17: il10ra_site1_normal_mot_HHH_b2_01999_000000006_0001_1_18_H_._HHH_b1_02563_af2_0001_0000800023_0000001_0 (protein)
chain: SSSSSSDIAELVAEAVVLATRLNDDEVFQELYELFREYIEEGDPRIEERVEELLEELRSSSSSSS
B18: il10ra_site1_sap_12_mot_HHH_b1_06789_af2_000000041_0001_1_20_H_._HHH_b1_04518_af2_0001_0000300005_0000001_0_0001 (protein)
chain: SSSSDEEEERLRELLEELEELVEEGDLERFAKVAQEALRFAFQLGDEEVLQRLFELVELIASSSS
B19: il10ra_site1_normal_mot_HHH_b1_04100_af2_000000180_0001_1_19_H_._HHH_b2_02775_0001_0000300018_0000001_0 (protein)
chain: SSSSSSDEERYVELALRFAKLVEDEEALRFLLEAAEQIARQANNEELEEAVEKVKEELSSSSSSS
B20: il10ra_site1_normal_mot_HHH_b1_07641_af2_000000285_0001_1_21_H_._HHH_b2_04382_af2_0001_0000200018_0000001_0_af2pred_0001 (protein)
chain: SSSSSEEAKEALELLKEALEARERGNPEEAREIAEEALRVAEEGGNKLLVLIIRFLLKQLSSSSS
B21: il10ra_site1_normal_mot_HHH_b2_07938_000000207_0001_42_56_H_._HHH_b2_03378_0001_0000600036_0000002_0 (protein)
chain: SSSSSREEAARTAAREIEELLEEGDEEEFKRLLRMLEIQVRLSRDEKAREVLEELRERLNSSSSS
B22: il10ra_site1_normal_mot_2c1a291787c6f40772924d4e9068d803_0001_af2_000000187_0001_34_48_H_._HHH_b2_03753_af2_0001_0000500015_0000001_0 (protein)
chain: SSSSDVERRVFELRAEAYLLFQQGNEEEAKELAEEAKELAEEEGDEALLLAVEKFQEWLRSSSSS
B23: il10ra_site1_sap_12_mot_HHH_b1_08040_000000016_0001_20_35_H_._HHH_b1_08008_0001_0000100004_0000001_0_0001_af2pred_0001 (protein)
chain: SSSSSSEVEELIREAEEAAEEQGDEEAVNMLEAIRLLAELGVLSEKVAEASARKLLMELGSSSSS
B24: il10ra_site1_normal_mot_HHH_b1_05083_af2_000000148_0001_42_57_H_._HHH_b1_02547_af2_0001_0000100005_0000002_0 (protein)
chain: SSSSSEEEEELHRLLRELAELAHEGDEEEVKELTREVEELAKELGNPLIAYQARWLLRRLSSSSS
B25: il10ra_site1_normal_mot_HHH_b1_05370_000000138_0001_1_16_H_._HHH_b2_05772_af2_0001_0000100001_0000001_0 (protein)
chain: SSSSSDELYKIAKEAIEEAVRLFREGNPEEAKEILEEALEKVEENNNEALAWALEHLLRVLSSSS
B26: il10ra_site1_sap_22_mot_HHH_b2_04327_000000030_0001_41_55_H_._HHH_b2_00587_0001_0000200015_0000001_0_0001 (protein)
chain: SSSSDQEEELAKALHELIKQALEWGDEELARMMLEALEMLAEELNDPELRELVEELEERLDSSSS
B27: il10ra_site1_normal_mot_HHH_b2_00984_000000042_0001_1_20_H_._HHH_b2_06653_0001_0000300025_0000002_0 (protein)
chain: SSSSDEEEVERRIEELLEEAREIEDEEEVSELLLEALQLAIQLGDPELLKEIWEVIKELLSSSSS
B28: il10ra_site1_sap_10_mot_HHH_b1_06789_af2_000000041_0001_1_20_H_._HHH_b2_05652_0001_0000400032_0000001_0_0001 (protein)
chain: SSSSDERYEFVKEIIKEVIELLREGDPEEARRLLEEAREFVEEFNDIAARFSLEHLLRILDSSSS
B29: il10ra_site1_sap_16_mot_HHH_b1_03230_000000248_0001_1_19_H_._HHH_b1_07999_0001_0000300027_0000001_0_0001_af2pred_dldesign_0_af2pred (protein)
chain: SSSSSDPKALNEEVVRLIREALEVDPERAAELLARARELAEKANSPIMLAAVEAAERALSSSSSS
B30: il10ra_site1_sap_13_mot_HHH_b1_05357_000000034_0001_23_39_H_._HHH_b1_06277_0001_0000200012_0000001_0_0001 (protein)
chain: SSSSNDEALEISQRAFHAALRGDYEEAEELLEEALELAREAGNEQLAEQIERLLEVVRREGSSSS
B31: il10ra_site1_sap_17_mot_HHH_b2_02537_000000065_0001_1_20_H_._HHH_b1_01262_af2_0001_0000300010_0000002_0_0001_af2pred_dldesign_0_af2pred (protein)
chain: SSSSSSEDRLLEATLRFAREAAAAGRLDSARLHLDYALEVAKERKDEELLAEIEALLAELSSSSS
B32: il10ra_site1_sap_28_mot_0eddeacbb14b769e73e254714f31e2f9_0001_af2_000000203_0001_37_51_H_._ems_3hM_77_0001_0000100001_0000002_1_0001_af2pred_dldesign_0_af2pred (protein)
chain: SSSSDVDAELEKMLAEIEKLYKEGKIEEAVKLLKEAAELAYENNNLEANARVLELSRKLASSSSS
B33: il10ra_site1_sap_17_mot_HHH_b1_05056_000000217_0001_1_20_H_._HHH_b2_06117_0001_0000300015_0000001_0_0001 (protein)
chain: SSSSSSWEEQDVRAVIKFAKQISNPEIARVALEYALELAREVGNEELEEEIEELLKELGSSSSSS
B34: il10ra_site1_normal_mot_HHH_b2_03220_af2_000000223_0001_23_40_H_._HHH_b2_02232_0001_0000300042_0000001_0 (protein)
chain: SSSSDKSEEVWRLIRLALELRAEGNPEEAEEVLKEAEELAKELGNFTFRFAIELLKKDIEESSSS
B35: il10ra_site1_sap_15_mot_HHH_b1_06786_000000000_0001_1_20_H_._HHH_b1_01295_0001_0000200021_0000001_0_0001 (protein)
chain: SSSSSDREERIEELLEEAERLREEGNPEEAARILMEALRLIFQLGNEELLRELWELIRRVSSSSS
B36: il10ra_site1_sap_25_mot_HHH_b1_04275_000000001_0001_22_39_H_._HHH_b2_07325_af2_0001_0000200012_0000001_0_0001 (protein)
chain: SSSSSSDAQRVFRLSERAAELASNGNPEEAEEVLEEAEKIAEEANDRLLQHQVRFMLELLSSSSS
B37: il10ra_site1_sap_16_mot_HHH_b1_02766_af2_000000078_0001_42_56_H_._HHH_b2_00444_af2_0001_0000200003_0000001_0_0001 (protein)
chain: SSSSTEANQEALELVLEAFRLLLRGDPEEAERVLKEAEELAREGNNPRLVEMIENLLRTQKSSSS

Target: il10ra, Q13651
Experiment: yeast display titration

Apparent Kd, inactive:
B1 no binding seen
B2 no binding seen
B3 no binding seen
B4 no binding seen
B5 no binding seen
B6 no binding seen
B7 no binding seen
B8 no binding seen
B9 no binding seen
B10 no binding seen
B11 no binding seen
B12 no binding seen
B13 no binding seen
B14 no binding seen
B15 no binding seen
B16 no binding seen
B17 no binding seen
B18 no binding seen
B19 no binding seen
B20 no binding seen
B21 no binding seen
B22 no binding seen
B23 no binding seen
B24 no binding seen
B25 no binding seen
B26 no binding seen
B27 no binding seen
B28 no binding seen
B29 no binding seen
B30 no binding seen
B31 no binding seen
B32 no binding seen
B33 no binding seen
B34 no binding seen
B35 no binding seen
B36 no binding seen
B37 no binding seen

Two entries picked at random from those above, as already listed:
Apparent Kd, inactive:
B19 no binding seen
B7 no binding seen
